Data reported in article PMC4700579.
These are yes or no findings as the source states them, for the method shown. In cells and extracts the contact can be indirect. Some entries that bind do so weakly or less than the wild type.

Sequences of proteins named here, by UniProt entry; tags and fusion partners are left off.
UniProt P55884: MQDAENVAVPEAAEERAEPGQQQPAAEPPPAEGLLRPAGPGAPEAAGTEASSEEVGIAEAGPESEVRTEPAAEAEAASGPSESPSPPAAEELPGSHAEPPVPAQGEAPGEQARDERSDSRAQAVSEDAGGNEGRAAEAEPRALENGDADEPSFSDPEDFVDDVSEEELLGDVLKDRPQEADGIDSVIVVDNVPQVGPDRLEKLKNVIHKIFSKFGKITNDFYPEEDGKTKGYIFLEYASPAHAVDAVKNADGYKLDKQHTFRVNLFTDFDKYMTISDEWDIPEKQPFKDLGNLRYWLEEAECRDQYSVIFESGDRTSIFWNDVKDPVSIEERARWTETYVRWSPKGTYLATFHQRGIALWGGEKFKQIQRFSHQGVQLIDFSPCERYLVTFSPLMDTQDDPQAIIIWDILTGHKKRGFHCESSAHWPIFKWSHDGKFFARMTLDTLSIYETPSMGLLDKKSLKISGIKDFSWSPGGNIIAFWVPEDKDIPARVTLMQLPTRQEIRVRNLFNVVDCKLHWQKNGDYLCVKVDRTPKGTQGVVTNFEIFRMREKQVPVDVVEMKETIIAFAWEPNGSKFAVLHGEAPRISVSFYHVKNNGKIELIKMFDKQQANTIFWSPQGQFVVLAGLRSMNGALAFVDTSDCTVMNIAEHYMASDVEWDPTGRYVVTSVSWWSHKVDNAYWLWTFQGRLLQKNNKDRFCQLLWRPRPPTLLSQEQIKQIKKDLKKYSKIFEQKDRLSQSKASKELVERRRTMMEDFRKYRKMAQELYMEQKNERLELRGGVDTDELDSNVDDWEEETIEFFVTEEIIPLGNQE
UniProt Q04637: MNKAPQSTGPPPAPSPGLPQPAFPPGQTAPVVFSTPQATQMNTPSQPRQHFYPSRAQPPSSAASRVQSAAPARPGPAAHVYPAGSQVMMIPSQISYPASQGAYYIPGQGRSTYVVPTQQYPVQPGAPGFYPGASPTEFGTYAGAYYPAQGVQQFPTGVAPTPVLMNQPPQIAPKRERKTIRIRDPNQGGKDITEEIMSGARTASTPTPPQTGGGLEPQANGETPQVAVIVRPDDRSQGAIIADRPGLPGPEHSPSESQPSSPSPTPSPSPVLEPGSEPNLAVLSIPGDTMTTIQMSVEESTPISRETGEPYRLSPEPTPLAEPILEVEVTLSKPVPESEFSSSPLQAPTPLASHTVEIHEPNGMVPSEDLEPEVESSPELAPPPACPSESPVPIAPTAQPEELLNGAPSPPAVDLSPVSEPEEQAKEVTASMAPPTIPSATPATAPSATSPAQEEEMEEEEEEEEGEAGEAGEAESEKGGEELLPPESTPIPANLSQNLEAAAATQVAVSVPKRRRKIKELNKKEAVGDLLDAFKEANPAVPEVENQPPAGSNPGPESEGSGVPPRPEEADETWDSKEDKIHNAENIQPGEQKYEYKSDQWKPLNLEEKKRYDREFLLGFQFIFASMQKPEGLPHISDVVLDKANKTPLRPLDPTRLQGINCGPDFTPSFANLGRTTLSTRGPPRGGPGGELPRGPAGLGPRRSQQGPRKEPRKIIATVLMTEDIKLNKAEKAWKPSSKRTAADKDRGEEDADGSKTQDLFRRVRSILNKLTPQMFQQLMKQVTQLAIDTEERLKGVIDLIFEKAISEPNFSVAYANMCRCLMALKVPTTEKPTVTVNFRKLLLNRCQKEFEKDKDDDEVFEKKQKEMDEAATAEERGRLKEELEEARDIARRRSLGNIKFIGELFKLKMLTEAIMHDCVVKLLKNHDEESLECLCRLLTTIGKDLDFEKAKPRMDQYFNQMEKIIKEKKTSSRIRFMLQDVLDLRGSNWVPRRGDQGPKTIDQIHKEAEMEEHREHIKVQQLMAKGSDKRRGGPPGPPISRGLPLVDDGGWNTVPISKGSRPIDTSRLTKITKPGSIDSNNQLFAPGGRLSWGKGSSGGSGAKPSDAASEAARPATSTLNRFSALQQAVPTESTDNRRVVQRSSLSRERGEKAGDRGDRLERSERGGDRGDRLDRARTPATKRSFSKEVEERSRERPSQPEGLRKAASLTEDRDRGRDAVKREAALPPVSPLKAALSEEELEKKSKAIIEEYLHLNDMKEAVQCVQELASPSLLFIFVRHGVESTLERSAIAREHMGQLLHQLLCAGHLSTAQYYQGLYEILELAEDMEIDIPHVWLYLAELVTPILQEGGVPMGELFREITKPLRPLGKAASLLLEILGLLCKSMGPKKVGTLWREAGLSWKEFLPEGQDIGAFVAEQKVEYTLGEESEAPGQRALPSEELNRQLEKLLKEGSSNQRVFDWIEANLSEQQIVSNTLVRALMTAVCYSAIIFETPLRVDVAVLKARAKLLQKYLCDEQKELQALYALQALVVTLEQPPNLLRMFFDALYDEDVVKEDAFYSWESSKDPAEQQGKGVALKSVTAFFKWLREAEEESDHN
UniProt P06730: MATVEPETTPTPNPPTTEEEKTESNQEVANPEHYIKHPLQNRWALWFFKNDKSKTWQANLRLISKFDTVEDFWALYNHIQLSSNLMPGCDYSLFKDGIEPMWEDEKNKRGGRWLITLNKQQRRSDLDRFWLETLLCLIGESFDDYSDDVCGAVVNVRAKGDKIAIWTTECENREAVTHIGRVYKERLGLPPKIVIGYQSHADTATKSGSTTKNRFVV

Target: eIF3B (human (endogenous in fibroblasts)) (UniProt P55884)
Experiment: co-IP; primary antibody (anti-eIF4E or anti-eIF3B) added to lysates of RBS and corrected fibroblasts (D-Leu or L-Leu treated), overnight at 4 °C, protein G-dynabeads 3 h, washed three times with lysis buffer, Western blot

Substance | binding
eIF4G1 (from UniProt Q04637 1-1599) | binds
eukaryotic translation initiation factor 4E (from UniProt P06730 1-217) | binds
